Data as given in article PMC12587161, “Chidamide (a Histone Deacetylase Inhibitor) Plus Abiraterone in Metastatic Castration‐Resistant Prostate Cancer (mCRPC): A Phase Ib Trial” (MedComm, 2025).

System: C4-2 cells
Experiment: RNA-seq and GSEA of treated CRPC cells
Assay type: cell-based
Conditions: chidamide 0.5 µM, DHT 10 nM as control

Nc1cc(F)ccc1NC(=O)c1ccc(CNC(=O)/C=C/c2cccnc2)cc1 [chidamide, Chidamide]
Genes downregulated (RNA-seq): 142 genes
Genes upregulated (RNA-seq): 29 genes
Pathways enriched (GSEA): IFN‐α and IFN‐γ responses, allograft rejection and apoptosis‐related pathways were enriched
